These are yes or no findings as the source states them, for the method shown.
Target: ClfA35-559 from pETM-10 (for ELISA) (S. aureus) (UniProt Q53653)
Experiment: ELISA; plates coated with 1 μg/well ClfA in PBS overnight at 4 °C, blocked with 2% BSA in PBS-T; AnnexinA2 or BSA (0–2000 nM) 1 h at RT; detected with anti-AnnexinA2 antibody and HRP secondary; triplicate; both purified

Sequences of proteins named here, by UniProt entry; tags and fusion partners are left off. Residues count along the entry.
UniProt Q53653, residues 35-559: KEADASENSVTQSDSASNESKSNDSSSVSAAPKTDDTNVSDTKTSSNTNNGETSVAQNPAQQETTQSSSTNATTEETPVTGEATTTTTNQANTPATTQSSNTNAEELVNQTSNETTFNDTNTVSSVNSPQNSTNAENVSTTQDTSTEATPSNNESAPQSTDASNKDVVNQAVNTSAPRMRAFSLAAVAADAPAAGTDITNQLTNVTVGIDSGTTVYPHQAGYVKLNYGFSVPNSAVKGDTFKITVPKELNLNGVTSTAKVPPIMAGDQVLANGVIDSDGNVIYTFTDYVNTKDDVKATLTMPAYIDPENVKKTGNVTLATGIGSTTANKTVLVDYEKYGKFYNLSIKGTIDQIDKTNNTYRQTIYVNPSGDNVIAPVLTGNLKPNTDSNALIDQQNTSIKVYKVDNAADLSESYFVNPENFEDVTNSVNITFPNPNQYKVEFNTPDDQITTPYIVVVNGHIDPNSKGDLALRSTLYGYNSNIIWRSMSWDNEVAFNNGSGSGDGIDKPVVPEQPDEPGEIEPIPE
UniProt P02769, residues 25-607: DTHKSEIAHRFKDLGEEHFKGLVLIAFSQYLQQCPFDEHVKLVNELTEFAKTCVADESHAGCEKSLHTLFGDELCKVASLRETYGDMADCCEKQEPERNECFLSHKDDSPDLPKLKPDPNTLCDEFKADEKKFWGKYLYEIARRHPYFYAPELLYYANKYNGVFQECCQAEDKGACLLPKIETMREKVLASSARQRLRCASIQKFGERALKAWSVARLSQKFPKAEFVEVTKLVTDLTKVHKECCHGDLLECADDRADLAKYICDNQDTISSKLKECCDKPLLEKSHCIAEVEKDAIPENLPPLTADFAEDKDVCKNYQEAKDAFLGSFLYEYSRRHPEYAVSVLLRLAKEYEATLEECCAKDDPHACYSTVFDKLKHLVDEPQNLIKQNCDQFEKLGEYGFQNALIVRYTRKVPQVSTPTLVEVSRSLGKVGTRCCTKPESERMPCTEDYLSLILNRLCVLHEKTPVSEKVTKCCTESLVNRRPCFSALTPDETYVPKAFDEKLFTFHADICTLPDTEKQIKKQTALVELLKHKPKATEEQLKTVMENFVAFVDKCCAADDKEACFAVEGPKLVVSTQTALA

Bovine serum albumin (BSA) (from UniProt P02769 25-607)
binding: no binding (tested: 0–2000 nM)
